Results are given in words; binding and its absence hold for the method and conditions named. In cells and extracts the contact can be indirect. Binding can be weak; no strength is given.
Key:
[1] = biological target: Flag-tagged full-length OPTN (residues 1–577) (human) (UniProt Q96CV9); experiment: co-IP; Flag-tagged OPTN and GFP-tagged TBK1 co-transfected in HEK293T; lysate on anti-Flag agarose beads, 4 h at 4 °C; western blot with anti-Flag and anti-GFP
[2] = biological target: Flag-tagged OPTN E50K (human) (UniProt Q96CV9); experiment: as above

By UniProt entry, the sequences of proteins in these tests, tags left out. Where a name states a change or a piece, a line headed by the entry shows the natural chain unless it says otherwise.
UniProt Q96CV9: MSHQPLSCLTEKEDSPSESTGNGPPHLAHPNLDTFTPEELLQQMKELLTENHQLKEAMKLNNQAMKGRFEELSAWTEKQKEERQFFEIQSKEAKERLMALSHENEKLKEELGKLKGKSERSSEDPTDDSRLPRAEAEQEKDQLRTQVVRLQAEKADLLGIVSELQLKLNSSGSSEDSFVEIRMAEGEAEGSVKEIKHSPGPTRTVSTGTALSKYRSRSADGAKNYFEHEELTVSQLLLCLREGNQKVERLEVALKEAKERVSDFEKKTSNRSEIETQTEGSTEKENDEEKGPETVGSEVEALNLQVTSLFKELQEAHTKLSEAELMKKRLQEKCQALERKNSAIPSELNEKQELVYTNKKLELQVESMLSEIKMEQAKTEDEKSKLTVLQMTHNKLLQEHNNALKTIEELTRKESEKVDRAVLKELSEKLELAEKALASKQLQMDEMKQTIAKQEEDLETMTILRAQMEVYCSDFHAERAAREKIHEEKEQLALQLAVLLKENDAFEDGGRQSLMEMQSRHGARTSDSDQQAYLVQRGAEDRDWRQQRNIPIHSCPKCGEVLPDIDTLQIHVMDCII
UniProt Q9UHD2: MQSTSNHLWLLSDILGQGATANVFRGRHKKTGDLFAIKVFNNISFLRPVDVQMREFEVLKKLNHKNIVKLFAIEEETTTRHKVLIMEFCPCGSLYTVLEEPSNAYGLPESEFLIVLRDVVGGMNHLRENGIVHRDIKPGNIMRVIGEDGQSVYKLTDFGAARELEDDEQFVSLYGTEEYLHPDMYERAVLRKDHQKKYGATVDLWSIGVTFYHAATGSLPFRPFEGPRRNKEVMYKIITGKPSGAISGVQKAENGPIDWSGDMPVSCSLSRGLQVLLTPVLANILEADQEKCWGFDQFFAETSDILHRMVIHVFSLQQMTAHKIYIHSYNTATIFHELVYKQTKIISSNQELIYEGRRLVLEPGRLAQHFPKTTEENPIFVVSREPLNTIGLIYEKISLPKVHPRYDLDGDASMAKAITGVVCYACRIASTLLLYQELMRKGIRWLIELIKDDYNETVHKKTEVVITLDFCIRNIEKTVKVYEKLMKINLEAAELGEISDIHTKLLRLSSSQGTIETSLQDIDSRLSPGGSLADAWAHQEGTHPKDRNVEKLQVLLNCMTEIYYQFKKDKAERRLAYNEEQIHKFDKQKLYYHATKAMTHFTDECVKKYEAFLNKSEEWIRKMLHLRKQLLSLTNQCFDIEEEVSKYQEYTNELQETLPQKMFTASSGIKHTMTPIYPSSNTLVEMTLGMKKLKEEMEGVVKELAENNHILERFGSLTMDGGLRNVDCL

binding [1] | binding [2] | Substance
binds weakly | – | GFP-tagged TBK1 E696K (from UniProt Q9UHD2)
– | binds | GFP-tagged TBK1 (residues 1–729) (from UniProt Q9UHD2 1-729)

Reference: paper PMC5027247
